The supplement of paper PMC10849652
This is one part of the list.

Sequences of proteins named here, by UniProt entry; tags and fusion partners are left off. A change or cut given only in a name is not applied to a line headed by its entry.
UniProt P42338: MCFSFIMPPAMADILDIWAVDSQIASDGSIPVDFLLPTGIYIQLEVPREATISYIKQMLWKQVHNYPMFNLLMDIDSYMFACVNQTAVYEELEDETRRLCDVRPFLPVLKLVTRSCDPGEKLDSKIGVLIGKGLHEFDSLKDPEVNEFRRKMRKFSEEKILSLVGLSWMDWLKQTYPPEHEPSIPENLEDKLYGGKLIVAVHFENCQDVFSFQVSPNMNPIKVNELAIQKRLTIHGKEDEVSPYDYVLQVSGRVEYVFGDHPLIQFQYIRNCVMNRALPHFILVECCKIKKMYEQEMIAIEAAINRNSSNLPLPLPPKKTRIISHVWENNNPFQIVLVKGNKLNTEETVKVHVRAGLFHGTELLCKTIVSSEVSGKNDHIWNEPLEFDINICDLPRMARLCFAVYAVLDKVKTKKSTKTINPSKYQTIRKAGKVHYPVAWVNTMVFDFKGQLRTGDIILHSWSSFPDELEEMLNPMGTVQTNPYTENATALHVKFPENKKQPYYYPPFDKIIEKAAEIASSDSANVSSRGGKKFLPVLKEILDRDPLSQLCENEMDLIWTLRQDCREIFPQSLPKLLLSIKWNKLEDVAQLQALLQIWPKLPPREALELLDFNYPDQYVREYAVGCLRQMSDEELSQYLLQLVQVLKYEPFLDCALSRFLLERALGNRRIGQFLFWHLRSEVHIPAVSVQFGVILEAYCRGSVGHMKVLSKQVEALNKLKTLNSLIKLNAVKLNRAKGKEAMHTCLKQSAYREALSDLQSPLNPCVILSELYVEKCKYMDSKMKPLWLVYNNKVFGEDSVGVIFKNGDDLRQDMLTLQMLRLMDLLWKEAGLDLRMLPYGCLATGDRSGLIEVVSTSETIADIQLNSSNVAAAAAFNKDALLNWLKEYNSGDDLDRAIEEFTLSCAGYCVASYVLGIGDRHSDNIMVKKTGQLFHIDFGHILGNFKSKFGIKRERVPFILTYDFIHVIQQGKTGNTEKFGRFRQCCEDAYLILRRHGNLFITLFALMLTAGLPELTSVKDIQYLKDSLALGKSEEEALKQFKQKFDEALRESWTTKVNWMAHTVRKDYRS
UniProt P78356: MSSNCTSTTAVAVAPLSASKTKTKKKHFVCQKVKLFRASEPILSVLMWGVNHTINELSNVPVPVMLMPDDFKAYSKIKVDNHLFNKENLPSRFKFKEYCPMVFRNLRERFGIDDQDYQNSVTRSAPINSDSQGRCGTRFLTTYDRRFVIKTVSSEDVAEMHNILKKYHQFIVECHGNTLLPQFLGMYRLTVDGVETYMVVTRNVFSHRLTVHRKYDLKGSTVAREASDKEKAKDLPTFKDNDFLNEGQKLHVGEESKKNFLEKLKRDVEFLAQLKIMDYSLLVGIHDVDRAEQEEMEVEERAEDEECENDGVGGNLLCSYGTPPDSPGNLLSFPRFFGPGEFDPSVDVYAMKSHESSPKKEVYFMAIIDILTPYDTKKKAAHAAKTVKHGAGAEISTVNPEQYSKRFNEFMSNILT
UniProt P35232: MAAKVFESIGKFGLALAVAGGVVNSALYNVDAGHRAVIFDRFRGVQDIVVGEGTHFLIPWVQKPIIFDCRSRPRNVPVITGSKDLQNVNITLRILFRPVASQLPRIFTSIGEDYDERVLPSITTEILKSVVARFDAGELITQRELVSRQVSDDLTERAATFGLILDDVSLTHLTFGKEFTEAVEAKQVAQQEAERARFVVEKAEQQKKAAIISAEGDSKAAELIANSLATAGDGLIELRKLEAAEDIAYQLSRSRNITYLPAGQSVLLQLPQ
UniProt Q16512: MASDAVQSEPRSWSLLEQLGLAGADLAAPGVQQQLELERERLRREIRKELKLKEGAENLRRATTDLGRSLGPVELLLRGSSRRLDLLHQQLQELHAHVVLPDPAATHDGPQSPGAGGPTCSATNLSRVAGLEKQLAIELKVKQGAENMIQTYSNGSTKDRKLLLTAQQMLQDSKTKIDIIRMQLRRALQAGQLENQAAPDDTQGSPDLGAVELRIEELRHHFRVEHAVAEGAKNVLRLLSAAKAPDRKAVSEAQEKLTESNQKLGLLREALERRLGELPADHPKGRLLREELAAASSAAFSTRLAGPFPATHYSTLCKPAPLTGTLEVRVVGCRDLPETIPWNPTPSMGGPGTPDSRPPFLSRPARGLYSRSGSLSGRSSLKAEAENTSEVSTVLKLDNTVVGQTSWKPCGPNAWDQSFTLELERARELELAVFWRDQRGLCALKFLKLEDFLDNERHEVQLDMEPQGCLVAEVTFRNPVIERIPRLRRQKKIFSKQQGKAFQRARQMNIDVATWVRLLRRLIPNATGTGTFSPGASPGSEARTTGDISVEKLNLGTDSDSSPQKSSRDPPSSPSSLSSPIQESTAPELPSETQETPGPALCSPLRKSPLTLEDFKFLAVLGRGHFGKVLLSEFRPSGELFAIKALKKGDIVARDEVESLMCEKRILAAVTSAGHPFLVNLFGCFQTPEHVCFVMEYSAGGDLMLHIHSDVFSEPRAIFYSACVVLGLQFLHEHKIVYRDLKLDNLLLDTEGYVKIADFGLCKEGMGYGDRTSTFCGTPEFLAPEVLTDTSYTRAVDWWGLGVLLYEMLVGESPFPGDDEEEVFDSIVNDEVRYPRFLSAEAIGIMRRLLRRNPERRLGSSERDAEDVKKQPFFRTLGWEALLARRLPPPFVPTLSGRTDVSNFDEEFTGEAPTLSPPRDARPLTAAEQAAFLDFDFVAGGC
UniProt Q99623, whole entry, looked up: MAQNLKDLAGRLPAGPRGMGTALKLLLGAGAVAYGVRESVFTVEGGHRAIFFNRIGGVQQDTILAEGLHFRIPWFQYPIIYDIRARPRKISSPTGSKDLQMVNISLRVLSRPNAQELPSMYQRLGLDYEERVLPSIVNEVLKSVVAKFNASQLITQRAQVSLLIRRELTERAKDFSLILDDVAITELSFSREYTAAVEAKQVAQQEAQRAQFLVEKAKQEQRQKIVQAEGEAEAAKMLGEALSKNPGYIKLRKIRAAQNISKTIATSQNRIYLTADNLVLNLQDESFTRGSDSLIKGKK
UniProt P0C869: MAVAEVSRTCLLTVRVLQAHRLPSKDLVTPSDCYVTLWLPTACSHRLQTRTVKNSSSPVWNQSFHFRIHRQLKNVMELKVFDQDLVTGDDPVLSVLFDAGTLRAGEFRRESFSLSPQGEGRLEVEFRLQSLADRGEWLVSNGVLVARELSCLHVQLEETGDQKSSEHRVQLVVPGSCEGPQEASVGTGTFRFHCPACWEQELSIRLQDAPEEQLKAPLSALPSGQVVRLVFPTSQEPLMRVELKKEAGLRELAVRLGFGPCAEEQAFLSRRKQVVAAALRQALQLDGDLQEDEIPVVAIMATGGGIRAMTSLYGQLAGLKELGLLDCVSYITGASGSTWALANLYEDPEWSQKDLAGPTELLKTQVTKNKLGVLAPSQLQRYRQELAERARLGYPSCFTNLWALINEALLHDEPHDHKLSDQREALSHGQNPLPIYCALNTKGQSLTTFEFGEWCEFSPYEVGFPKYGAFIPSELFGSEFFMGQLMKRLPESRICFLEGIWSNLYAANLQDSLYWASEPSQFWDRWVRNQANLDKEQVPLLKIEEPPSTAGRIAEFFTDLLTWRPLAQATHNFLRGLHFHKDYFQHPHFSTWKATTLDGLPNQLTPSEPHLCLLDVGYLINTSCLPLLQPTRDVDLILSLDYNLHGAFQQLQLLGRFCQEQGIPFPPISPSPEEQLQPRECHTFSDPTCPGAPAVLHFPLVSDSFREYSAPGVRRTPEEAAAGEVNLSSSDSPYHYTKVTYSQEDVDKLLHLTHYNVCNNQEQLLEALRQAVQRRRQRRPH
UniProt Q96G03: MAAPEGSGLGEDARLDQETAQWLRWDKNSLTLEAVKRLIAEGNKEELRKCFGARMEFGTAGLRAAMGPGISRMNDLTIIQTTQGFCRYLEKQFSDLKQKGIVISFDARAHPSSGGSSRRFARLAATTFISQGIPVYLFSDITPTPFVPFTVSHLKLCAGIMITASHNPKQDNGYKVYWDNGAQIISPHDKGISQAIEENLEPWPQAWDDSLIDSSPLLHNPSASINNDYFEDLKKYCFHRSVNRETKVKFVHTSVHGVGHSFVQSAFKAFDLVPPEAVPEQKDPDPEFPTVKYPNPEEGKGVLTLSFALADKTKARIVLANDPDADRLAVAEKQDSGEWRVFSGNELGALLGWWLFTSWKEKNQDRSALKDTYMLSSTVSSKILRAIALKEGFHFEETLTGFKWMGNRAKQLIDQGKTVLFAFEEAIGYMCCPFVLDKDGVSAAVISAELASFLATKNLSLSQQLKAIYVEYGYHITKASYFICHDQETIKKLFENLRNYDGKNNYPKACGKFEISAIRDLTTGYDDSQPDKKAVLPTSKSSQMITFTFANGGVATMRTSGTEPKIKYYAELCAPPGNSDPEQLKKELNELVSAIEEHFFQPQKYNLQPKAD
UniProt Q9P1Y6: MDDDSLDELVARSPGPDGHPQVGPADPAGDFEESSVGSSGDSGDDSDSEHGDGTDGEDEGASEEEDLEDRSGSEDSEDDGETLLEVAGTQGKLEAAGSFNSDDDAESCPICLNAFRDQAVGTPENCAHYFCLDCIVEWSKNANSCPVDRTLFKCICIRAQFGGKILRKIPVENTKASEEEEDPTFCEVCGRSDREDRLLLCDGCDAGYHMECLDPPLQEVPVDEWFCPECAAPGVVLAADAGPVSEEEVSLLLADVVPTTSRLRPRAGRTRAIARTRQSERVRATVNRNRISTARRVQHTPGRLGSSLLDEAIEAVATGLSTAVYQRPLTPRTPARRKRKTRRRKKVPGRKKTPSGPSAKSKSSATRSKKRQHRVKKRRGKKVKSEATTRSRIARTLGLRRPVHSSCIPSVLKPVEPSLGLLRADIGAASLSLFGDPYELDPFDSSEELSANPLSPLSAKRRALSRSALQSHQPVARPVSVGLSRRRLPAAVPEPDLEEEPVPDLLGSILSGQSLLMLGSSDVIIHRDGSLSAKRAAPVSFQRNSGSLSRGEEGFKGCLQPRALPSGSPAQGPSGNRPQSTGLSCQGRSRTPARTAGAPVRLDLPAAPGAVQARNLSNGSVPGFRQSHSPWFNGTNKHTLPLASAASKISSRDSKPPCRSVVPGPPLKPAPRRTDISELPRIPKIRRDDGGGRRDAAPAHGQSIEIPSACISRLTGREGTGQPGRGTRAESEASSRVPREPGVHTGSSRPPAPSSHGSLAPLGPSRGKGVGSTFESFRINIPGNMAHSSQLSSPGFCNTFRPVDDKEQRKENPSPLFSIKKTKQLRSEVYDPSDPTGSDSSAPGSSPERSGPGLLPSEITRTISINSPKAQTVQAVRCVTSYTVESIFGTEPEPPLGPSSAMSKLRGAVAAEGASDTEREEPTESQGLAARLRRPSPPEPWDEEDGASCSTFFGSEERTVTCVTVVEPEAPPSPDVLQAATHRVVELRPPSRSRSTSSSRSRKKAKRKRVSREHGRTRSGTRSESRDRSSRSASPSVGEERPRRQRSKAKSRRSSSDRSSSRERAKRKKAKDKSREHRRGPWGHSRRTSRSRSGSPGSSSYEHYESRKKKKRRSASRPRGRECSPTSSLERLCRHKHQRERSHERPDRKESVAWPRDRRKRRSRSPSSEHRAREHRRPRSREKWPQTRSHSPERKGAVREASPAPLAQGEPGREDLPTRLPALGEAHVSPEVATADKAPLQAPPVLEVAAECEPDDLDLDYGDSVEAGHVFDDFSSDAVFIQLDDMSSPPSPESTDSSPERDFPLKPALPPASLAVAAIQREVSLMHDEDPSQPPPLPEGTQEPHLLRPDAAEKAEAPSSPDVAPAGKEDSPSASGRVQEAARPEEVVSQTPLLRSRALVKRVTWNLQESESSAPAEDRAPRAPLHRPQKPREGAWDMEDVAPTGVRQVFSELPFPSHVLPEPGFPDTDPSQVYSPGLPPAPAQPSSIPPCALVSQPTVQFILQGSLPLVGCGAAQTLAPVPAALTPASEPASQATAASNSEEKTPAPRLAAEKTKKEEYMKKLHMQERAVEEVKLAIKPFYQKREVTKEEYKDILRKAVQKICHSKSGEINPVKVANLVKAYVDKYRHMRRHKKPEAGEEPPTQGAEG
UniProt Q8IV08: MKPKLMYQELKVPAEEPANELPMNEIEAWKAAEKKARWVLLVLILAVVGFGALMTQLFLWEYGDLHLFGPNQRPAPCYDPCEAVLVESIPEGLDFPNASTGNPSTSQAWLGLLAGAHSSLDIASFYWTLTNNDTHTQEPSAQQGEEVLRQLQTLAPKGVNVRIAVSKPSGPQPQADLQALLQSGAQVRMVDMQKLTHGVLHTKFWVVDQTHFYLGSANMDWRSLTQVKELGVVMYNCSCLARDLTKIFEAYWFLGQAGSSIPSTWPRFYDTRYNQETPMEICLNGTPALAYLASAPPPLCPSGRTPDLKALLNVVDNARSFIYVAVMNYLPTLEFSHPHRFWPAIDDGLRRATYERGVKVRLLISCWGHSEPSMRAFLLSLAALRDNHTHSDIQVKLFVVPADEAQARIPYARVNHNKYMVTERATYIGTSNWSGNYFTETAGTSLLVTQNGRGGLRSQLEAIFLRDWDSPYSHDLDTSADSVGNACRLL

Tests used:
Experiment in all cases: log2 fold change, soluble protein after heating vs DMSO (PISA); higher = thermal stabilisation; K562 lysate, 10 uM; active = over 0.2 and 3.5 SD of the protein, either way, in both replicates (recomputed)
erlotinib = compound: C#Cc1cccc(Nc2ncnc3cc(OCCOC)c(OCCOC)cc23)c1 [erlotinib]
Summary of the method: (§1)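 Following dounce homogenisation of K562 pellets in PBS pH 7.4 with 1 mM MgCl2, crude extract at 1 mg/mL protein was incubated for 30 min with 10 μM compound. Aliquots were then heated for 3 min over 48°C-58°C and pooled, NP-40 was added to 0.5% at 4°C, and soluble protein was recovered as the supernatant at 21,000xg for 90 min. Channel-sum-equalised TMTpro 16plex LC-MS/MS quantified this protein. Each value, from duplicates, is a log-two fold change in thermal stability relative to solvent controls.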

[1] = compound: C/C(=N\NC(=O)C1=CC(=CC=C1)S(=O)(=O)N2CCOCC2)/C3=C(C=CC(=C3)Cl)O
Summary of the method: as §1

[2] = compound: C1=CC(=CC=C1C2=NC3=C(N2)C=C(C=C3)C(=O)N)OC4=CC=C(C=C4)Cl
Summary of the method: as §1

[3] = compound: C1=CC2=C(C=CC(=C2)/C=C\3/C(=O)NC(=NCC4=CC=CS4)S3)N=C1
Summary of the method: as §1

[4] = compound: C1=CC2=NC=CN=C2C=C1/C=C/3\C(=O)NC(=O)S3
Summary of the method: as §1

[5] = compound: C1=CC=C(C=C1)C2=NC(=C(N2)C3=CC=NC=C3)C4=CC(=C(C=C4)Cl)O
Summary of the method: as §1

[6] = compound: C1=CC=C2C(=C1)C3=NNC4=CC=CC(=C43)C2=O
Summary of the method: as §1

[7] = compound: C1CCN(C1)C(=O)NC2=CC=CC(=C2)NC3=NC=C(C(=N3)NCCC4=CN=CN4)Br
Summary of the method: as §1

[8] = compound: C1CN(CCC1(CC2=CC=C(C=C2)Cl)N)C3=NC=NC4=C3C=CN4
Summary of the method: as §1

IRAK-1-4 Inhibitor I = compound: C1COCCN1CCN2C3=CC=CC=C3N=C2NC(=O)C4=CC(=CC=C4)[N+](=O)[O-] [IRAK-1-4 Inhibitor I]
Summary of the method: as §1

ibrutinib = compound: C=CC(=O)N1CCC[C@@H](n2nc(-c3ccc(Oc4ccccc4)cc3)c3c(N)ncnc32)C1 [ibrutinib]
Summary of the method: as §1

[9] = compound: CC(=O)c1cnc2ccc(-c3cc(Cl)c(O)c(Cl)c3)nc2c1N[C@H]1CC[C@H](CN(C)C)CC1
Summary of the method: as §1

ralimetinib = compound: CC(C)(C)Cn1c(N)nc2ccc(-c3[nH]c(C(C)(C)C)nc3-c3ccc(F)cc3)nc21 [ralimetinib]
Summary of the method: as §1

[10] = compound: CC(C)(O)CC(=O)NCCn1ccc2ncnc(Nc3ccc(Oc4cccc(C(F)(F)F)c4)c(Cl)c3)c21
Summary of the method: as §1

[11] = compound: CC(C)C1=C2N=C(C=C(N2N=C1)NCC3=CC=CC=C3)NCCCCCCN
Summary of the method: as §1

[12] = compound: CC1=C(C(CC(=O)N1)C2=CC=C(C=C2)C(F)(F)F)C(=O)NC3=C(C=C4C(=C3)C=NN4)F
Summary of the method: as §1

[13] = compound: CC1=C(C2=C(C=C1)C(=O)C3=CC=CC=C3N2CCCN)C
Summary of the method: as §1

[14] = compound: CC1=C(C=C(C=C1)NC(=O)C2=CC(=CC=C2)C(C)(C)C#N)NC3=CC4=C(C=C3)N=CN(C4=O)C
Summary of the method: as §1

[15] = compound: CC1=C(C=C(C=C1)NC(=O)C2=CC(=CC=C2)N(C)C)NC(=O)C3=CC=C(C=C3)O
Summary of the method: as §1

[16] = compound: CC1=CC=C(C=C1)SC2=C3C=C(SC3=CN=C2)C(=O)N
Summary of the method: as §1

Measured: log2 fold change

PIK3CB (UniProt P42338)
inactive: erlotinib -0.024 | [1] -0.014 | [2] -0.045 | [3] 0.159 | [4] 0.412 | [5] 0.019 | [6] 0.095 | [7] 0.002 | [8] 0.052 | IRAK-1-4 Inhibitor I 0.037 | ibrutinib -0.009 | [9] 0.388 | ralimetinib -0.011 | [10] -0.005 | [11] -0.076 | [12] -0.003 | [13] 0.035 | [14] -0.012 | [15] 0.056 | [16] 0.018

PIP4K2B (UniProt P78356)
inactive: erlotinib 0.038 | [1] -0.193 | [2] -0.021 | [3] 0.012 | [4] 0.096 | [5] 0.067 | [6] 0.013 | [7] 0.032 | [8] -0.02 | IRAK-1-4 Inhibitor I -0.019 | ibrutinib -0.002 | [9] 0.043 | ralimetinib 0.016 | [10] 0.023 | [11] -0.032 | [12] -0.043 | [13] -0.022 | [14] 0.087 | [15] -0.044 | [16] -0.031

PHB (UniProt P35232)
inactive: erlotinib -0.008 | [1] -0.023 | [2] -0.01 | [3] -0.015 | [4] -0.066 | [5] -0.022 | [6] 0.025 | [7] 0.01 | [8] -0.008 | IRAK-1-4 Inhibitor I 0.012 | ibrutinib 0.012 | [9] -0.003 | ralimetinib 0.004 | [10] 0.026 | [11] 0.016 | [12] -0.021 | [13] 0.013 | [14] -0.007 | [15] -0.025 | [16] 0.015

Random excerpt: two records from the list.
PHB (UniProt P35232)
inactive: erlotinib -0.008 | [1] -0.023 | [2] -0.01 | [3] -0.015 | [4] -0.066 | [5] -0.022 | [6] 0.025 | [7] 0.01 | [8] -0.008 | IRAK-1-4 Inhibitor I 0.012 | ibrutinib 0.012 | [9] -0.003 | ralimetinib 0.004 | [10] 0.026 | [11] 0.016 | [12] -0.021 | [13] 0.013 | [14] -0.007 | [15] -0.025 | [16] 0.015

PIP4K2B (UniProt P78356)
inactive: erlotinib 0.038 | [1] -0.193 | [2] -0.021 | [3] 0.012 | [4] 0.096 | [5] 0.067 | [6] 0.013 | [7] 0.032 | [8] -0.02 | IRAK-1-4 Inhibitor I -0.019 | ibrutinib -0.002 | [9] 0.043 | ralimetinib 0.016 | [10] 0.023 | [11] -0.032 | [12] -0.043 | [13] -0.022 | [14] 0.087 | [15] -0.044 | [16] -0.031

The list continues.

PKN1 isoform 2 (UniProt Q16512)
inactive: erlotinib -0.014 | [1] 0.007 | [2] 0.018 | [3] -0.048 | [4] -0.042 | [5] -0.004 | [6] -0.175 | [7] -0.191 | [8] -0.203 | IRAK-1-4 Inhibitor I -0.174 | ibrutinib 0.011 | [9] -0.107 | ralimetinib -0.001 | [10] 0.008 | [11] 0.006 | [12] 0.091 | [13] 0.021 | [14] 0.048 | [15] 0.035 | [16] 0.05

PHB2 (UniProt Q99623)
inactive: erlotinib -0.01 | [1] 0.012 | [2] -0.012 | [3] -0.01 | [4] 0.007 | [5] 0.005 | [6] 0.031 | [7] 0.005 | [8] -0.012 | IRAK-1-4 Inhibitor I 0.002 | ibrutinib -0.008 | [9] 0.005 | ralimetinib -0.015 | [10] -0.009 | [11] -0.006 | [12] 0.004 | [13] 0.002 | [14] -0.006 | [15] -0.008 | [16] 0.003

PGK1 (UniProt P00558)
inactive: erlotinib -0.007 | [1] 0.026 | [2] -0.011 | [3] -0.026 | [4] -0.04 | [5] -0.003 | [6] 0.008 | [7] 0.002 | [8] 0.011 | IRAK-1-4 Inhibitor I -0.002 | ibrutinib -0.002 | [9] 0.014 | ralimetinib -0.008 | [10] 0.002 | [11] -0.006 | [12] -0.035 | [13] 0.004 | [14] -0.027 | [15] -0.015 | [16] 0.004

PKP3 isoform 2 (UniProt Q9Y446)
inactive: erlotinib 0.063 | [1] -0.011 | [2] 0.042 | [3] 0.009 | [4] 0.006 | [5] -0.011 | [6] -0.02 | [7] -0.011 | [8] -0.013 | IRAK-1-4 Inhibitor I 0.015 | ibrutinib 0.005 | [9] -0.022 | ralimetinib -0.028 | [10] 0.009 | [11] -0.006 | [12] 0.014 | [13] 0.021 | [14] 0.004 | [15] -0.019 | [16] 0.052

PIKFYVE (UniProt Q9Y2I7)
inactive: erlotinib -0.026 | [1] -0.008 | [2] -0.01 | [3] 0.005 | [4] -0.011 | [5] 0.03 | [6] -0.034 | [7] -0.039 | [8] 0.035 | IRAK-1-4 Inhibitor I -0.004 | ibrutinib 0.019 | [9] -0.012 | ralimetinib 0.011 | [10] -0.012 | [11] 0 | [12] 0.042 | [13] 0.003 | [14] -0.044 | [15] 0.016 | [16] -0.004

PLA2G4B isoform 6 (UniProt P0C869)
inactive: erlotinib 0.099 | [1] 0.064 | [2] 0.048 | [3] -0.099 | [4] 0.023 | [5] 0.062 | [6] -0.021 | [7] -0.011 | [8] 0.026 | IRAK-1-4 Inhibitor I 0.065 | ibrutinib -0.029 | [9] -0.046 | ralimetinib -0.17 | [10] -0.15 | [11] 0 | [12] -0.047 | [13] -0.149 | [14] 0.34 | [15] -0.005 | [16] -0.052

PI4KA (UniProt P42356)
inactive: erlotinib 0.018 | [1] -0.014 | [2] -0.055 | [3] 0.035 | [4] 0.075 | [5] -0.028 | [6] -0.027 | [7] -0.021 | [8] 0.02 | IRAK-1-4 Inhibitor I -0.003 | ibrutinib 0.012 | [9] 0.119 | ralimetinib 0.011 | [10] -0.073 | [11] -0.045 | [12] 0 | [13] -0.039 | [14] 0.032 | [15] 0.04 | [16] -0.002

PGM2 (UniProt Q96G03)
inactive: erlotinib -0.012 | [1] 0.002 | [2] 0.035 | [3] 0.001 | [4] 0.012 | [5] 0 | [6] 0.026 | [7] -0.007 | [8] 0.022 | IRAK-1-4 Inhibitor I -0.007 | ibrutinib -0.008 | [9] 0.013 | ralimetinib -0.021 | [10] -0.003 | [11] -0.009 | [12] -0.027 | [13] -0.026 | [14] 0.012 | [15] -0.017 | [16] -0.01

PGM3 isoform 4 (UniProt O95394)
inactive: erlotinib -0.001 | [1] 0.036 | [2] -0.017 | [3] 0.005 | [4] 0.004 | [5] -0.035 | [6] 0.01 | [7] -0.007 | [8] -0.007 | IRAK-1-4 Inhibitor I 0.007 | ibrutinib 0.004 | [9] 0 | ralimetinib 0.017 | [10] 0.007 | [11] 0.003 | [12] -0.004 | [13] 0.025 | [14] -0.005 | [15] -0.002 | [16] 0.023

PHRF1 (UniProt Q9P1Y6)
inactive: erlotinib 0 | [1] 0.018 | [2] -0.163 | [3] 0.05 | [4] 0.018 | [5] 0.055 | [6] -0.025 | [7] -0.053 | [8] -0.026 | IRAK-1-4 Inhibitor I -0.001 | ibrutinib -0.033 | [9] -0.017 | ralimetinib -0.011 | [10] -0.056 | [11] 0.255 | [12] -0.002 | [13] -0.043 | [14] -0.036 | [15] -0.027 | [16] 0.019

PHKA1 (UniProt P46020)
inactive: erlotinib -0.011 | [1] 0.003 | [2] -0.015 | [3] 0.063 | [4] 0.078 | [5] -0.027 | [6] 0.205 | [7] 0.05 | [8] 0.026 | IRAK-1-4 Inhibitor I 0.01 | ibrutinib -0.045 | [9] 0.012 | ralimetinib 0.03 | [10] -0.031 | [11] -0.053 | [12] 0.004 | [13] -0.019 | [14] -0.005 | [15] 0.032 | [16] 0.003

PLD3 (UniProt Q8IV08)
inactive: erlotinib -0.013 | [1] 0.038 | [2] -0.019 | [3] -0.033 | [4] 0.002 | [5] -0.004 | [6] -0.001 | [7] -0.034 | [8] -0.001 | IRAK-1-4 Inhibitor I -0.014 | ibrutinib -0.005 | [9] -0.013 | ralimetinib 0.023 | [10] -0.024 | [11] -0.017 | [12] 0.014 | [13] -0.009 | [14] 0.02 | [15] -0.045 | [16] 0.002
